No constants are given. Whether binding was seen depends on the method and setting. Binding seen in cells or lysates may run through a third protein. Some entries that bind do so weakly or less than the wild type.
Target: T1, FATE1, as transfected for Fig. 3e (legend prints 'FATE') (UniProt Q969F0)
T1 sequence: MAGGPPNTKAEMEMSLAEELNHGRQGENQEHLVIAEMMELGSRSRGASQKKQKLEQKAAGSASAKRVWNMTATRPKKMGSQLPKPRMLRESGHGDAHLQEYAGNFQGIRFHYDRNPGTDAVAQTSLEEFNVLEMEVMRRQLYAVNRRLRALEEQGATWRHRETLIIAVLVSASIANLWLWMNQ
Experiment: co-IP; HEK293T cells 20 h after transfection with BIK-L61G, FATE and HA-RNF183 cDNAs; lysed in NDLB, immunoprecipitated and immunoblotted as indicated

By UniProt entry, the sequences of proteins in these tests, tags left out. Where a name states a change or a piece, a line headed by the entry shows the natural chain unless it says otherwise.
UniProt Q13323: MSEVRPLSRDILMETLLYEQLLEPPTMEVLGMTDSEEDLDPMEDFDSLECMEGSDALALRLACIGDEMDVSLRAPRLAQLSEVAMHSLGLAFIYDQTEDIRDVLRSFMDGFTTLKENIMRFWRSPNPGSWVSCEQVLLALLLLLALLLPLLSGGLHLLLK

binding: binds
Substance: BIK-L61G (from UniProt Q13323 1-160)

Source: PMC4660212
